Measurements: the supplement of paper PMC10849652
The list shows a part of the results.

The chains behind the UniProt entries cited, without tags or fusion partners. Where a name states a change or a piece, a line headed by the entry shows the natural chain unless it says otherwise.
UniProt Q8WUH1: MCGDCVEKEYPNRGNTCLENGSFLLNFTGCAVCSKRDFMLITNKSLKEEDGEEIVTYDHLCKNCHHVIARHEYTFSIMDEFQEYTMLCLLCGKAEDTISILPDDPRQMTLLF
UniProt Q9NZ45: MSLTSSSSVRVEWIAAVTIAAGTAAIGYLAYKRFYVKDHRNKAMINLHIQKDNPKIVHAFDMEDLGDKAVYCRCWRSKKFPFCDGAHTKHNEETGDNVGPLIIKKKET
UniProt Q8TDI0: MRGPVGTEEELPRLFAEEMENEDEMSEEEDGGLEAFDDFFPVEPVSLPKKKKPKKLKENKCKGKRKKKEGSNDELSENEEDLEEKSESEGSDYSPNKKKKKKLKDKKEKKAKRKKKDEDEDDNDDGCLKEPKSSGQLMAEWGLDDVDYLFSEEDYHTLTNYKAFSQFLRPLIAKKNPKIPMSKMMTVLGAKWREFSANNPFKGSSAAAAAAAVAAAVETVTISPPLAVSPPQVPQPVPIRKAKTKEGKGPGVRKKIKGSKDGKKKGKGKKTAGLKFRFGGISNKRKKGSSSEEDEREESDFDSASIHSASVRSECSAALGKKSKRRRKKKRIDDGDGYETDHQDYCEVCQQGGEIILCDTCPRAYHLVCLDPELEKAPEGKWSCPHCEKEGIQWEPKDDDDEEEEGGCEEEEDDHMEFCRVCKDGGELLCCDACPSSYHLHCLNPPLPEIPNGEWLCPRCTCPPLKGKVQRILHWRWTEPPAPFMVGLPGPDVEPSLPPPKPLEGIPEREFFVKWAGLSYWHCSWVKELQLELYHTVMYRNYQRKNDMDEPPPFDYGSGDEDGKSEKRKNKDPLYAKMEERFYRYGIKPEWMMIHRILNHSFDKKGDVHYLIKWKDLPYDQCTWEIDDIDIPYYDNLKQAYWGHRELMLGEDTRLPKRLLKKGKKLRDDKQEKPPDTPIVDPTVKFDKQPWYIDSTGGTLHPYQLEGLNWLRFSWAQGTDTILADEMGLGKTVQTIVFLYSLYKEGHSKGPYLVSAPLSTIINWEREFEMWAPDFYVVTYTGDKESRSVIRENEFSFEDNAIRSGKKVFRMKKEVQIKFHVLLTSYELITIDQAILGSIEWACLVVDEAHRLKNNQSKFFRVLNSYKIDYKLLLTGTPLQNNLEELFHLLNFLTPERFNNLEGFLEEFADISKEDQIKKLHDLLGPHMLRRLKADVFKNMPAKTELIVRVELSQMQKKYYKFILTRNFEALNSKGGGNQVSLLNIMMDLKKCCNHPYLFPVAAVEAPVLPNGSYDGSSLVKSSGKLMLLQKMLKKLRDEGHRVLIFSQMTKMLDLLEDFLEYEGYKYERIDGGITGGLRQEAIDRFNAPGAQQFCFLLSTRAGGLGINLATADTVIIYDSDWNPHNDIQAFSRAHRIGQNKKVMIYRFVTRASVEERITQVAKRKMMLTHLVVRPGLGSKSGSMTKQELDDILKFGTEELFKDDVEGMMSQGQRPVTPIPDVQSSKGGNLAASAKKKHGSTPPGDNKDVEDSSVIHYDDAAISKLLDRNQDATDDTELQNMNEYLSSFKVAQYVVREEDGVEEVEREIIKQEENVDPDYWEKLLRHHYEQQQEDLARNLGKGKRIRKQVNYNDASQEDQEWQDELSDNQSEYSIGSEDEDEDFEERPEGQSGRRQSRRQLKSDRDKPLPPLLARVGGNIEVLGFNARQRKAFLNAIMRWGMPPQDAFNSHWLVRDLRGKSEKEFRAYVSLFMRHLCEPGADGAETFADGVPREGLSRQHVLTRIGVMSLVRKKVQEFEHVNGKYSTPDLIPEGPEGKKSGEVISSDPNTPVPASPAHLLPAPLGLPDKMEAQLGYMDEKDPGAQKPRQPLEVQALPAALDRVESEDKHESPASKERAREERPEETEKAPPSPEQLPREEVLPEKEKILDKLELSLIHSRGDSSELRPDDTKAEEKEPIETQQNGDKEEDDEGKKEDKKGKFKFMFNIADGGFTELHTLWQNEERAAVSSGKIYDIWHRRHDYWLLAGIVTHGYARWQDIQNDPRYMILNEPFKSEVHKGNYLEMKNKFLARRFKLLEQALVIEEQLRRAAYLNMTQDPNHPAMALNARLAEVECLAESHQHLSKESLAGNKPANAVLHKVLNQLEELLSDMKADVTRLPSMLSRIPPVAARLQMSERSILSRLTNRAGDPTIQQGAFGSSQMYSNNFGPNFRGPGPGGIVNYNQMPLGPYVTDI
UniProt Q8N5K1: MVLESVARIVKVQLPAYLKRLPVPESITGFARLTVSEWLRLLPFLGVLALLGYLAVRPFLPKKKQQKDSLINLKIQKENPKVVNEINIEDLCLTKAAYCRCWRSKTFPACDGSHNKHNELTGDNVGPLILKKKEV
UniProt Q8WWK9: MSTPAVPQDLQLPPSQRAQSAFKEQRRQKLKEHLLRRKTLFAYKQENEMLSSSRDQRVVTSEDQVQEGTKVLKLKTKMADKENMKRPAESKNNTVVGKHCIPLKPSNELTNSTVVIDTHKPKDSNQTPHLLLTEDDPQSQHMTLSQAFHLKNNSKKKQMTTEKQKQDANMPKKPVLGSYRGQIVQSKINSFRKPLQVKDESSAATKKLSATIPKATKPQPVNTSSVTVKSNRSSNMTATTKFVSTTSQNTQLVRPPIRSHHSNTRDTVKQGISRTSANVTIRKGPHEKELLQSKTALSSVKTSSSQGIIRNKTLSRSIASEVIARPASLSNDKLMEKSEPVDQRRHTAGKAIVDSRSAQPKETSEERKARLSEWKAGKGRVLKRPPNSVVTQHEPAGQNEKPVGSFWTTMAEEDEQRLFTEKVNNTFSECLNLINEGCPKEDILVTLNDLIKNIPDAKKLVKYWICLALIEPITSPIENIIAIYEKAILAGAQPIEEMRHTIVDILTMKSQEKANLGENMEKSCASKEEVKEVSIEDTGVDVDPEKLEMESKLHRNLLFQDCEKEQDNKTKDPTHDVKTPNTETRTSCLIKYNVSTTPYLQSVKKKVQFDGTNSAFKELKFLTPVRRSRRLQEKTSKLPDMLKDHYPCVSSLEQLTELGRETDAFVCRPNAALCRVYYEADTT
UniProt Q9NY35: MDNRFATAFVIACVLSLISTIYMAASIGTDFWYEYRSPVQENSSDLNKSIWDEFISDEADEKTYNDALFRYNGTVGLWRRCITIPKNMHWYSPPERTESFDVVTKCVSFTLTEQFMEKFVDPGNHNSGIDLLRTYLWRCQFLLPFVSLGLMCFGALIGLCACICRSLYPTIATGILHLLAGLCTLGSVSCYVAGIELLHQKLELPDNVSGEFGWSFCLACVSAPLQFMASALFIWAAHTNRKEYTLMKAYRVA
UniProt Q9BQ75: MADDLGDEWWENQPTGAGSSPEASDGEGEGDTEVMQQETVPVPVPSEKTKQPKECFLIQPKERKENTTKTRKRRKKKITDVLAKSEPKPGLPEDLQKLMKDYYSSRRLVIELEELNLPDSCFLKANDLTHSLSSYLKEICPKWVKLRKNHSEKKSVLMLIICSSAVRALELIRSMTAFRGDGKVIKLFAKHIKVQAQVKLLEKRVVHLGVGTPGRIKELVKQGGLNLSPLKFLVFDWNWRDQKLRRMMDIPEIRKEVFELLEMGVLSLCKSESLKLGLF
UniProt O75122: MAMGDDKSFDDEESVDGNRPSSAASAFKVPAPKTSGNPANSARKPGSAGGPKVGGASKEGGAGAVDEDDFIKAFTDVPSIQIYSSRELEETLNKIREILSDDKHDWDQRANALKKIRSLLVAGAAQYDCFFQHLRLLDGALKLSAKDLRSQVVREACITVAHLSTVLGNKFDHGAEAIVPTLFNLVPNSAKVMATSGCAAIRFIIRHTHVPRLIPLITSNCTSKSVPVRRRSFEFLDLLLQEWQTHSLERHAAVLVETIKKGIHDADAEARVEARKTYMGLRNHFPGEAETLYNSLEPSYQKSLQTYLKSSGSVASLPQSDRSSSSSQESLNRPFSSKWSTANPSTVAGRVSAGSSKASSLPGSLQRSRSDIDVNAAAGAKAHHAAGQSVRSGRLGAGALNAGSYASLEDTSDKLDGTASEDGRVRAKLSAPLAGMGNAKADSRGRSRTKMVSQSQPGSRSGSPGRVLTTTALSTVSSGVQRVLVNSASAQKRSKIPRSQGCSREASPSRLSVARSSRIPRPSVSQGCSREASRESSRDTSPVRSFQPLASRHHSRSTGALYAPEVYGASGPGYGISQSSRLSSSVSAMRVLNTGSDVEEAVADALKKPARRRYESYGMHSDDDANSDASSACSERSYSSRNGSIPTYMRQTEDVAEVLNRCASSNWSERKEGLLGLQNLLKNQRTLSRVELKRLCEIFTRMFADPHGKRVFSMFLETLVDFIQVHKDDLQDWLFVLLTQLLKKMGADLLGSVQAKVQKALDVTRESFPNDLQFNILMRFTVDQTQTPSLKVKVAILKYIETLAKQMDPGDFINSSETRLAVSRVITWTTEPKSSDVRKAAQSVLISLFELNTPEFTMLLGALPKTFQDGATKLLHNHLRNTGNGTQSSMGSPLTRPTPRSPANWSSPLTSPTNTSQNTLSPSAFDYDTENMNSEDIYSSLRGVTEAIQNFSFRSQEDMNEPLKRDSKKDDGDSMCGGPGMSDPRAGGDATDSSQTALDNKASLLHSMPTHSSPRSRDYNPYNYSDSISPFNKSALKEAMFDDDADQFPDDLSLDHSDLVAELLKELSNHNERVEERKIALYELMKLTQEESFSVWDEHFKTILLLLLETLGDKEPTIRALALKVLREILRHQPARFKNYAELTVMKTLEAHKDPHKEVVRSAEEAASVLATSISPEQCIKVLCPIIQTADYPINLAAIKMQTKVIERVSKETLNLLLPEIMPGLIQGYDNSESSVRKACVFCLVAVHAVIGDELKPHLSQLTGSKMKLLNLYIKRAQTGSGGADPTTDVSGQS
UniProt P06732: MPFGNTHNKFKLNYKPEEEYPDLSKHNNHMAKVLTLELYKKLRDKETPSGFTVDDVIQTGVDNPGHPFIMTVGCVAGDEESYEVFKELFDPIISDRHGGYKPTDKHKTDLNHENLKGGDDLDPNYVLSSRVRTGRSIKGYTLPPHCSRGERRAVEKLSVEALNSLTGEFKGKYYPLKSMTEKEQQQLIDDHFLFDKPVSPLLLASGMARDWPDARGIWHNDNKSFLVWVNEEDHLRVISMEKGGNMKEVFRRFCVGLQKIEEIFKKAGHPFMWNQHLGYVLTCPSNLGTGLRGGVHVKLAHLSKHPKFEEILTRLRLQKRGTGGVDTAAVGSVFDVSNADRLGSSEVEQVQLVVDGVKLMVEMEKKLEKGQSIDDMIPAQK
UniProt Q96NY7: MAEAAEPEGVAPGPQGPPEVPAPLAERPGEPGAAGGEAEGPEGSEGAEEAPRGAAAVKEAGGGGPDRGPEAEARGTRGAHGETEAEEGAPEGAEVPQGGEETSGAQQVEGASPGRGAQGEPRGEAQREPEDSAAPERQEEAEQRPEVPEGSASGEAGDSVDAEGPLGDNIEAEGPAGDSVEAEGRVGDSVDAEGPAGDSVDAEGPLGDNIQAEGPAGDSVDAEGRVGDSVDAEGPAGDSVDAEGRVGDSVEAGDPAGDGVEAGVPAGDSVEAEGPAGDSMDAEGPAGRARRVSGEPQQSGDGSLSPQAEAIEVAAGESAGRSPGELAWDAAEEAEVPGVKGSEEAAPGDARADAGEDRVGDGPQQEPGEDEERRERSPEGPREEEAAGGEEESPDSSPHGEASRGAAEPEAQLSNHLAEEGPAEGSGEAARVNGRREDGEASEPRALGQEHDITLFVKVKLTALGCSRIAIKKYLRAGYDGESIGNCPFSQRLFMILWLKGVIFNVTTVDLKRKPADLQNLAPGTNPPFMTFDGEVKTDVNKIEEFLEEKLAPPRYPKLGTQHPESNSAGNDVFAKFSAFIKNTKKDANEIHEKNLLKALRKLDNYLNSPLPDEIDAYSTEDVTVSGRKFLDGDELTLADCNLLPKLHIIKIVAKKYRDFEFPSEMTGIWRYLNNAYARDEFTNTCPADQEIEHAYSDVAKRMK
UniProt Q99653: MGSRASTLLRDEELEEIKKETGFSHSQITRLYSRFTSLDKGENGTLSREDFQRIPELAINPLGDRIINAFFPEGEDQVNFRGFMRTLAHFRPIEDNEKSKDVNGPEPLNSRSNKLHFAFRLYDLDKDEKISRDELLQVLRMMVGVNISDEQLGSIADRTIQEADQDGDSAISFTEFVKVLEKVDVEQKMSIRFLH
UniProt Q9NX63: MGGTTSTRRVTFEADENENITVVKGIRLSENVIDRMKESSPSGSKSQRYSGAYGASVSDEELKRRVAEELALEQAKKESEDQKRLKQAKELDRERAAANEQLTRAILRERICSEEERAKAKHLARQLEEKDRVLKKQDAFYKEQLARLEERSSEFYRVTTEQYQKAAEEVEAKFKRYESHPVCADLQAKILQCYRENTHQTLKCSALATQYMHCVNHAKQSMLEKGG
UniProt Q7LBR1: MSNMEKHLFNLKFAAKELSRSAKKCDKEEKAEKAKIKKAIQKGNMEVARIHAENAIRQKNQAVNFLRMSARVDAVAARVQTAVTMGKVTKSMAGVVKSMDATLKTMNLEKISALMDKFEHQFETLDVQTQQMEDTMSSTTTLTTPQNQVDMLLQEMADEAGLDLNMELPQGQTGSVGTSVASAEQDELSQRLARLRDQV

Tests used:
Test in all cases: log2 fold change, soluble protein after heating vs DMSO (PISA); higher = thermal stabilisation; K562 lysate, 10 uM; active = over 0.2 and 3.5 SD of the protein, either way, in both replicates (recomputed)
[1] = compound: CCCS(=O)(=O)Nc1ccc(F)c(C(=O)c2c[nH]c3ncc(-c4ccc(Cl)cc4)cc23)c1F [vemurafenib]
How it was run: (§1)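 The values are log-two fold changes in thermal stability compared with solvent controls and come from duplicates. They were obtained by TMTpro 16plex LC-MS/MS, with channel sums equalised, on the supernatant after 21,000xg for 90 min. That supernatant came from crude K562 extract at 1 mg/mL protein treated with 10 μM compound for 30 min, heated for 3 min across 48°C-58°C, pooled and brought to 0.5% NP-40 at 4°C.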

[2] = compound: CCCS(=O)(=O)Nc1ccc(F)c(C(=O)c2c[nH]c3ncc(Cl)cc23)c1F
How it was run: as §1

[3] = compound: CCN(CCCOc1ccc2c(Nc3cc(CC(=O)Nc4cccc(F)c4)[nH]n3)ncnc2c1)CCOP(=O)(O)O [barasertib]
How it was run: as §1

[4] = compound: CC[C@@H]1C(=O)N(C)c2cnc(Nc3ccc(C(=O)NC4CCN(C)CC4)cc3OC)nc2N1C1CCCC1
How it was run: as §1

[5] = compound: CC[C@@H]1C(=O)N(C)c2cnc(Nc3ccc(C(=O)N[C@H]4CC[C@H](N5CCN(CC6CC6)CC5)CC4)cc3OC)nc2N1C(C)C [volasertib]
How it was run: as §1

[6] = compound: CCn1c(C(=O)N(C2CC2)C2CC2)cc2c3c(ncn3C)c(Nc3cc(C)n(C)n3)nc21
How it was run: as §1

[7] = compound: CCn1cc(-c2ccnc3[nH]c(-c4cccc(CN(C)C)c4)cc23)c(-c2ccc(NC(=O)N(C)C)cc2)n1
How it was run: as §1

[8] = compound: CN1CCC(CNc2ccc3ncc(-c4cccc(OC(F)(F)F)c4)n3n2)CC1
How it was run: as §1

[9] = compound: CN1CCN(CCOc2cc(OC3CCOCC3)c3c(Nc4c(Cl)ccc5c4OCO5)ncnc3c2)CC1 [saracatinib]
How it was run: as §1

[10] = compound: CN1CCN(c2nc(C3=C(c4c[nH]c5ccccc45)C(=O)NC3=O)c3ccccc3n2)CC1 [sotrastaurin]
How it was run: as §1

Target	log2 fold change [1]	log2 fold change [2]	log2 fold change [3]	log2 fold change [4]	log2 fold change [5]	log2 fold change [6]	log2 fold change [7]	log2 fold change [8]	log2 fold change [9]	log2 fold change [10]
CHURC1 isoform 2 (UniProt Q8WUH1)	inactive: 0.019	inactive: -0.166	inactive: 0.194	inactive: 0.038	inactive: 0.129	inactive: 0.018	inactive: -0.108	inactive: 0.024	inactive: -0.071	inactive: -0.013
CISD1 (UniProt Q9NZ45)	inactive: 0.002	inactive: 0.01	inactive: -0.043	inactive: 0.012	inactive: 0.044	inactive: -0.046	inactive: -0.145	inactive: 0.188	inactive: 0.013	inactive: -0.038
CHD5 (UniProt Q8TDI0)	inactive: -0.034	inactive: 0.022	inactive: 0.034	inactive: 0.165	inactive: -0.028	inactive: -0.026	inactive: 0.051	inactive: -0.019	inactive: 0.026	inactive: 0.026
CISD2 (UniProt Q8N5K1)	inactive: 0.046	inactive: 0.017	inactive: -0.008	inactive: 0.094	inactive: 0.025	inactive: -0.032	inactive: -0.022	inactive: 0.063	inactive: -0.005	inactive: -0.022
CKAP2 (UniProt Q8WWK9)	inactive: -0.095	inactive: 0.01	inactive: -0.014	inactive: 0.073	inactive: 0.009	inactive: -0.024	inactive: 0.062	inactive: -0.094	inactive: 0.019	inactive: 0.019
CLDND1 (UniProt Q9NY35)	inactive: -0.044	inactive: 0.012	inactive: 0.001	inactive: 0.053	inactive: -0.022	inactive: 0.097	inactive: -0.131	inactive: 0.111	inactive: 0.01	inactive: 0.086
CMSS1 (UniProt Q9BQ75)	inactive: -0.011	inactive: 0.005	inactive: 0.023	inactive: -0.007	inactive: -0.011	inactive: 0	inactive: 0.212	inactive: -0.086	inactive: 0.007	inactive: -0.003
CLTC (UniProt Q00610)	inactive: 0.046	inactive: 0.014	inactive: 0.045	inactive: -0.069	inactive: -0.083	inactive: 0.02	inactive: 0.096	inactive: -0.069	inactive: 0.014	inactive: 0.01
CLASP2 isoform 3 (UniProt O75122)	inactive: 0.054	inactive: -0.002	inactive: 0.02	inactive: 0.015	inactive: -0.006	inactive: 0.013	inactive: -0.162	inactive: 0.093	inactive: 0.011	inactive: 0.01
CIT isoform 4 (UniProt O14578)	inactive: -0.023	inactive: 0.003	inactive: 0.026	inactive: 0.013	inactive: -0.067	inactive: 0.005	inactive: 0.37	inactive: -0.025	inactive: 0.035	inactive: -0.008
CKM (UniProt P06732)	inactive: 0.072	inactive: -0.018	inactive: -0.018	inactive: 0.086	inactive: -0.084	inactive: -0.039	active: -0.574	inactive: 0.17	inactive: -0.014	inactive: 0.086
CLIC6 (UniProt Q96NY7)	inactive: 0.029	inactive: 0.046	inactive: -0.073	inactive: -0.017	inactive: -0.045	inactive: 0.006	inactive: -0.037	inactive: 0.008	inactive: -0.02	inactive: 0.051
CHP1 (UniProt Q99653)	inactive: 0.073	inactive: 0.009	inactive: 0.096	inactive: 0.066	inactive: -0.026	inactive: -0.032	inactive: -0.196	inactive: 0.102	inactive: -0.025	inactive: 0.019
CHCHD3 (UniProt Q9NX63)	inactive: 0.038	inactive: 0.006	inactive: -0.038	inactive: -0.012	inactive: 0.038	inactive: -0.001	inactive: -0.006	inactive: -0.066	inactive: 0.011	inactive: -0.025
CHMP1B (UniProt Q7LBR1)	inactive: -0.02	inactive: -0.027	inactive: 0.002	inactive: -0.002	inactive: 0.029	inactive: -0.015	inactive: 0.039	inactive: -0.067	inactive: -0.036	inactive: 0.003

Only log2 fold change [6] (2 entries from above):
Target	log2 fold change [6]
CLIC6 (UniProt Q96NY7)	inactive: 0.006
CHP1 (UniProt Q99653)	inactive: -0.032
